{"sequences": {"note": "Chains of the proteins cited; added tags and fusions are not shown. Lines headed by an entry give the natural chain unless they say otherwise; changes in a name come on top.", "UniProt Q8WU76": "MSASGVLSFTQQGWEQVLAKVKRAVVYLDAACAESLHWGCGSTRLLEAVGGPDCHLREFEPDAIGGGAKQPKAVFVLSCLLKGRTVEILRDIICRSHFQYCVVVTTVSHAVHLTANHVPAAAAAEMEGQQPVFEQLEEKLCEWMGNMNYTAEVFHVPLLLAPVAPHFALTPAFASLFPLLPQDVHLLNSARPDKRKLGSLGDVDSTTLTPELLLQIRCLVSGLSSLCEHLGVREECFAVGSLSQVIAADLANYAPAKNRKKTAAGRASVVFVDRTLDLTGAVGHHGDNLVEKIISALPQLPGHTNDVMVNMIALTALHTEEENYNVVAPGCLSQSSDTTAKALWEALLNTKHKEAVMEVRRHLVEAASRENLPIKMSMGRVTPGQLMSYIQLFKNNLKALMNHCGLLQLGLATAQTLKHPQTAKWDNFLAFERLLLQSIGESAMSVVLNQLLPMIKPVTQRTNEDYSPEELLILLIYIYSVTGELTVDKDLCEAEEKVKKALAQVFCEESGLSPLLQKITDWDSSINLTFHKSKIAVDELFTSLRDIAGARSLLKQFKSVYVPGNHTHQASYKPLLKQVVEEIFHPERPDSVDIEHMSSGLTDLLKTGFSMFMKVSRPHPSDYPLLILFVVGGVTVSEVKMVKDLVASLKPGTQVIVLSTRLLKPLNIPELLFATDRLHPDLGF", "UniProt Q8TCU6, whole entry": "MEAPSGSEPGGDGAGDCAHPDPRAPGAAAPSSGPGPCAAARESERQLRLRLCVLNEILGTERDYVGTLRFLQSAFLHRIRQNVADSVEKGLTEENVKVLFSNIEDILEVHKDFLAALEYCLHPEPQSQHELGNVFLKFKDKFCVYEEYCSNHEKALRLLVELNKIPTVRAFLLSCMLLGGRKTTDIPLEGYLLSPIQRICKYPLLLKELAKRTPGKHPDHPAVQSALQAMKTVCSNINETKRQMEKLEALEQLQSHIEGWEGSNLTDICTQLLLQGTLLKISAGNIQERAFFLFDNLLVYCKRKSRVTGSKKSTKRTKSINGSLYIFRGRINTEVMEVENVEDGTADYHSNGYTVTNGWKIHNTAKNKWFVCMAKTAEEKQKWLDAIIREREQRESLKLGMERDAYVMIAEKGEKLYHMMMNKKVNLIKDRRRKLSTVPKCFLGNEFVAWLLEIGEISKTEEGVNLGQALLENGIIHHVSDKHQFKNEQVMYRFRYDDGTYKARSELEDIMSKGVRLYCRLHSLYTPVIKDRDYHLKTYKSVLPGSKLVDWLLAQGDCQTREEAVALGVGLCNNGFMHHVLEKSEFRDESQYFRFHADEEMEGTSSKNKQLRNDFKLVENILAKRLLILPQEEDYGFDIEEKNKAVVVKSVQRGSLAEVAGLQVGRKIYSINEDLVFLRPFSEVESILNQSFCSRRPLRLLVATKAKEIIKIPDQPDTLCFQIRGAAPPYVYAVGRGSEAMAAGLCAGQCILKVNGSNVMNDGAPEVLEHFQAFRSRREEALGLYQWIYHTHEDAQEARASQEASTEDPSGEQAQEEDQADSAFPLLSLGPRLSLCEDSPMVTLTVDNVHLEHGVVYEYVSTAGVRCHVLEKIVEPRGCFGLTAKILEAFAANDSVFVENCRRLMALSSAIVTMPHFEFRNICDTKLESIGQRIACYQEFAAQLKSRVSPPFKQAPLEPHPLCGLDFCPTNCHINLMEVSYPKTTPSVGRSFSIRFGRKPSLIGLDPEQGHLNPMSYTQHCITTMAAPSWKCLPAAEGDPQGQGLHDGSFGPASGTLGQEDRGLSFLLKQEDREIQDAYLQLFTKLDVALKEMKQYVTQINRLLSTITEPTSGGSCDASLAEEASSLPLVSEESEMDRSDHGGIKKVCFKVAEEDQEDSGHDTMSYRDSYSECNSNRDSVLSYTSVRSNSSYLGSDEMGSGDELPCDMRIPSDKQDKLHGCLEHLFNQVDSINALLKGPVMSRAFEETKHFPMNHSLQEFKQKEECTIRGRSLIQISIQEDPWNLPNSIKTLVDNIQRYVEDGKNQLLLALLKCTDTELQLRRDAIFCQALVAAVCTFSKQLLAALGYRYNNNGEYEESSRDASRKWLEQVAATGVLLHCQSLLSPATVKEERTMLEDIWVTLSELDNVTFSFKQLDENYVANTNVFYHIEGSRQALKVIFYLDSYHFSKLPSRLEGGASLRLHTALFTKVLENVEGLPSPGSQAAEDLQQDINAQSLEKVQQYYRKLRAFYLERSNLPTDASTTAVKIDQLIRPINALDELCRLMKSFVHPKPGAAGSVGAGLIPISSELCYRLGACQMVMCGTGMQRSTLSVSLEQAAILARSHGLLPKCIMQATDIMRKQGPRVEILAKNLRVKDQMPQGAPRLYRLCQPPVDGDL", "UniProt Q8TEQ6": "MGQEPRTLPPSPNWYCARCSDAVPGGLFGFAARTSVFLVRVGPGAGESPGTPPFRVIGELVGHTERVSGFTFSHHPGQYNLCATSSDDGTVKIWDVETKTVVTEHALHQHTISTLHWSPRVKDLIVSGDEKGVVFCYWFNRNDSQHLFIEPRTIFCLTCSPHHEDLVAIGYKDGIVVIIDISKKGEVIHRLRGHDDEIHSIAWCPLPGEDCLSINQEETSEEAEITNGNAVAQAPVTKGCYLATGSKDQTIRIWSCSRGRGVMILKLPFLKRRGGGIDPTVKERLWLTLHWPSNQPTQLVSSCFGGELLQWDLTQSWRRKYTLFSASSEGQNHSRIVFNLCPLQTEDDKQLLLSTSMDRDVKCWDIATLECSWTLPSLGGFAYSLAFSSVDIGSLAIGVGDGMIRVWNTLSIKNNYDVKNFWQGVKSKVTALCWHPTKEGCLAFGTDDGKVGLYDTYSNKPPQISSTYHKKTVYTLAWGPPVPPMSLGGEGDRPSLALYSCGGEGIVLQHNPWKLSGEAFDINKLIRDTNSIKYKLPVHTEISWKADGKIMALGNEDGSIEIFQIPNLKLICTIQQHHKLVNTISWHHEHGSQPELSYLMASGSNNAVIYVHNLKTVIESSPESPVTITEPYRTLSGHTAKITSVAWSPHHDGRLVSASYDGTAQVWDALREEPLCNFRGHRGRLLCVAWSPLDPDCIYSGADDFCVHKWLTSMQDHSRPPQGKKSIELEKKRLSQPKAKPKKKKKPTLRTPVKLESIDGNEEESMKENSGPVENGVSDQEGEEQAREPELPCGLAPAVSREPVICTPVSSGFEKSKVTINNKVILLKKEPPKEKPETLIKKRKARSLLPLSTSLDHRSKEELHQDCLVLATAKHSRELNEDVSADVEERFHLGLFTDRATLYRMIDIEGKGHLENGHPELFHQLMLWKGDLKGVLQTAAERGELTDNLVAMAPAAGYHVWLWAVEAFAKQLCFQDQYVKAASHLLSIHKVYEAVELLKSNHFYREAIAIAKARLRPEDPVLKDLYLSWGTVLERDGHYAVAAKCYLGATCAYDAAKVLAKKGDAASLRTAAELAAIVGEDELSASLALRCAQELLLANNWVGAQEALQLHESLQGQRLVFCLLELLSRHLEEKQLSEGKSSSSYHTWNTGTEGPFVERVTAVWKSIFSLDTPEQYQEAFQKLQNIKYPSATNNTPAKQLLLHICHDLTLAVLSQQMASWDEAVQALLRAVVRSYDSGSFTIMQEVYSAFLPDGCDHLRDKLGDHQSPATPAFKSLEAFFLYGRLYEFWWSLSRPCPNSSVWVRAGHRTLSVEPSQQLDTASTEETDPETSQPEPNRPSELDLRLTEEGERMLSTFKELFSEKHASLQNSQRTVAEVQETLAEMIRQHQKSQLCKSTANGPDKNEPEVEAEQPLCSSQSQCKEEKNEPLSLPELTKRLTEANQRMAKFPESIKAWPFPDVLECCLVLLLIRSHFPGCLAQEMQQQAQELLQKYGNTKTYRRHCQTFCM", "UniProt Q8WVC6": "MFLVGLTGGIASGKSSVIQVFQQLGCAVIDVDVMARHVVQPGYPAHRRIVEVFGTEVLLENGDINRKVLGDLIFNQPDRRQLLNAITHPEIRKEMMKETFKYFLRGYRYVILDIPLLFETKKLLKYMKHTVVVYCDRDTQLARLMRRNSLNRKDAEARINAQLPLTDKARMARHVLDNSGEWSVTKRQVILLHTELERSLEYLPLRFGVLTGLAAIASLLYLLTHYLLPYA", "UniProt Q8TEB1, whole entry": "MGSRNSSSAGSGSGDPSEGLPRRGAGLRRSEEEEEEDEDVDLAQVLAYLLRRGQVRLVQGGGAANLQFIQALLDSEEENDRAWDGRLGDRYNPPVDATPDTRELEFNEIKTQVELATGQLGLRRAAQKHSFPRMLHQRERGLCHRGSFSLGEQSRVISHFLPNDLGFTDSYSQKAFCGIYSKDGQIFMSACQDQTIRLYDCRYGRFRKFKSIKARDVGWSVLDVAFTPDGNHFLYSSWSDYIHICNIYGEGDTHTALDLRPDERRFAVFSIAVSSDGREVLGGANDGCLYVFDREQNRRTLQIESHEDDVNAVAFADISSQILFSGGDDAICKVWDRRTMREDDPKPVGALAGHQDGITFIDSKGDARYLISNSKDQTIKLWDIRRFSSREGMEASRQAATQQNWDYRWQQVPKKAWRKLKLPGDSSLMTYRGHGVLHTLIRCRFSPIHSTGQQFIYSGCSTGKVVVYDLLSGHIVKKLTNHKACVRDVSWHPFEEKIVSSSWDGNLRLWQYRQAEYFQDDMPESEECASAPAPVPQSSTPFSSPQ", "UniProt Q8TE02": "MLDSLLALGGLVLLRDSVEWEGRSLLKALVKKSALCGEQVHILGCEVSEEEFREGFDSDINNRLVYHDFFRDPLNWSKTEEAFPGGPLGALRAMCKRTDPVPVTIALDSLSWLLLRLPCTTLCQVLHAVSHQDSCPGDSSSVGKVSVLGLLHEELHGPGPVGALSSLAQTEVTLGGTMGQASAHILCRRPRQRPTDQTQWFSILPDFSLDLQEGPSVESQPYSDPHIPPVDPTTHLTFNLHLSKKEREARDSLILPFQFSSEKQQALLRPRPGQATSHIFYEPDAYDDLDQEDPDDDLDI"}, "source": "the supplement of paper PMC12819154", "about": "“High-throughput peptide-centric local stability assay extends protein–ligand identification to membrane proteins, tissues and bacteria” (Nature Structural & Molecular Biology, 2025)", "note": "The other results are listed elsewhere or left out. Most entries show no effect beyond the scatter of the controls.", "data": [{"compound": "Cc1nc(Nc2ncc(C(=O)Nc3c(C)cccc3Cl)s2)cc(N2CCN(CCO)CC2)n1 [dasatinib]", "experiment": "log2 fold change of tryptic peptide abundance, ligand vs vehicle (limited proteolysis) (log2 ratio); higher = more trypsin-susceptible (destabilized)", "conditions": "ligand concentration: 5 uM; sample: K562 cleared lysate", "values": [{"target": "SCFD2 (peptide sequence: HLVEAASR, peptide start residue: 362) (UniProt Q8WU76)", "log2 fold change": 0.202}, {"target": "MRPL30 (peptide sequence: VFQASPEDHEK, peptide start residue: 45) (UniProt Q8TCC3)", "log2 fold change": -0.273}, {"target": "PREX1 (peptide sequence: DSYSECNSNR, peptide start residue: 1168) (UniProt Q8TCU6)", "log2 fold change": -0.315}, {"target": "RTF1 (peptide sequence: NQQMDPFTRR, peptide start residue: 588) (UniProt Q92541)", "log2 fold change": 0.409}, {"target": "GEMIN5 (peptide sequence: EEKNEPLSLPELTKR, peptide start residue: 1423) (UniProt Q8TEQ6)", "log2 fold change": -0.211}, {"target": "DCAKD (peptide sequence: QVILLHTELER, peptide start residue: 188) (UniProt Q8WVC6)", "log2 fold change": -0.257}, {"target": "TTN (peptide sequence: VTAINKAGPGK, peptide start residue: 20489) (UniProt Q8WZ42)", "log2 fold change": -0.423}, {"target": "UniProt Q8TEB1 (peptide sequence: ELEFNEIK, peptide start residue: 103)", "log2 fold change": 0.66}, {"target": "UniProt Q8TE02 (peptide sequence: DSVEWEGR, peptide start residue: 32)", "log2 fold change": 0.149}]}]}
